# Over roughly 33,000 sequences, “E-score (-0.5 to 0.5)” has its median near -0.015; the highest 2% begin near 0.3. This is one part of the list.
# Biological target: T1, Abf1 (UniProt P14164)
# T1 sequence: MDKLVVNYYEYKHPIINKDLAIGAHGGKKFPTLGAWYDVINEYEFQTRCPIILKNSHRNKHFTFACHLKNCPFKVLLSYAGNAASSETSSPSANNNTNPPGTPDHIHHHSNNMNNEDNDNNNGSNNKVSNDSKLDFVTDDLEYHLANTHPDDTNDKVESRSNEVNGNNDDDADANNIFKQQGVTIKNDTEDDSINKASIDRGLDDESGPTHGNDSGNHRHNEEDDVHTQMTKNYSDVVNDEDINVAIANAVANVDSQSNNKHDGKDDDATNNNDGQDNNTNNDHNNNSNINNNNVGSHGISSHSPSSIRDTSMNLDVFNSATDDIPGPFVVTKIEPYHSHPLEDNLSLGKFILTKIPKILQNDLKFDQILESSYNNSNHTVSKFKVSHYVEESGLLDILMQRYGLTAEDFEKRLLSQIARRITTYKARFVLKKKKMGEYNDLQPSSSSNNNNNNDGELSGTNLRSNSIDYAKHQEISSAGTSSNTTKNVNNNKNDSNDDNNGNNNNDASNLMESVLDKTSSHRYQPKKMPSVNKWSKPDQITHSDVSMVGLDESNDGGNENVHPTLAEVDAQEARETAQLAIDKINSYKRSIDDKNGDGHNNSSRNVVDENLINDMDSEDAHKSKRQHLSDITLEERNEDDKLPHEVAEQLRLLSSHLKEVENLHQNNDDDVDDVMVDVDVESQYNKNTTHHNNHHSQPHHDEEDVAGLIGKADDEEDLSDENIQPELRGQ
# Test: PBM E-score (8-mer binding enrichment) (E-score (-0.5 to 0.5)); higher = stronger / more preferred TF binding
# Conditions: protein concentration: 200 nM; construct: GST-full length
# Protocol: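 Universal 'all 10-mer' protein binding microarrays (Agilent AMADID 015681) probed with GST-tagged S. cerevisiae TFs (full-length or DBD) made by in vitro transcription/translation (PURExpress), about 100-200 nM. Bound TF was detected with fluorescent anti-GST. Each ungapped 8-mer (which stands for itself and its reverse complement) is scored by the PBM enrichment score (E-score), a modified Wilcoxon-Mann-Whitney statistic from -0.5 to +0.5, computed with the Universal PBM Analysis Suite. Scale: above 0.35 generally sequence-specific binding.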
row,Sequence,PBM E-score
1,ACTTGTGA,-0.0634
2,AACACAAG,-0.163
3,AGAAAGCA,0.0861
4,TGAAAACA,0.0957
5,ACCCACCC,-0.102
6,GGTAGTAC,-0.0337
7,GACATCAA,0.178
8,CTCCCGCA,-0.227
9,ATCTATAC,-0.0821
10,CCACTCCC,-0.27
11,CGGCTTGC,0.0935
12,AACACAGC,0.0485
13,CTCAACAC,0.0911
14,GGTTGGGA,-0.0893
15,CAGGCGGC,-0.0499
16,CATATCGA,0.0442
17,ACCGTACT,0.286
18,AATCCTCT,-0.186
19,CACTTCAG,0.0421
20,ACACTTAT,-0.0575
21,CTGACCCC,-0.328
22,ACCGTTGA,0.148

# Single values from above:
# PBM E-score, GACATCAA reads 0.178
# PBM E-score, GGTTGGGA reads -0.0893

# (next part)

row,Sequence,PBM E-score
1,ATACGCGA,0.0862
2,CAGTCTCG,-0.227
3,CTCTACTA,0.0396
4,ATACAGGG,-0.0394
5,GTTGGCGA,0.0423
6,CCGGATCA,0.039
7,AATACGAT,0.276
8,CCGATGCA,-0.131
9,ATACCGCA,-0.0798
10,CTGGTCCA,-0.0942
11,CCTGTGCC,-0.0805
12,GATAGCGA,0.226
13,CCAGCTAG,0.0103
14,AGAAGAAG,-0.0116
15,CTCAGGCA,-0.121
16,GGTGCCCA,0.00407
17,ATCAACGC,0.0823
18,AGTACGTG,0.0865
19,ATACAGAG,-0.18
20,GCCGCAAC,0.0158
21,CTTGCAAC,0.0224
22,AAAATCCC,-0.0966

row,Sequence,PBM E-score
1,GCTGACAA,0.0133
2,GTACTAGA,0.111
3,AAGCCTGA,-0.117
4,ACTTAGTA,0.216
5,GAACCTAC,-0.00821
6,ACATCGGG,0.0963
7,ACTTACAG,-0.0364
8,CGCGGTCA,-0.0568
9,AGCCCCCC,-0.459
10,ACGGCAAA,0.156
11,CAATATCG,0.218
12,ACCCTTTA,0.0562
13,CGGAGCCA,-0.236
14,CCATTACA,0.188
15,GAGGGCAC,-0.218
16,ATTATAAG,0.0118
17,GCTTAGGA,-0.124
18,GTCCTTGA,0.158
19,AAAAGCGA,0.206
20,CATCGTGC,0.314
21,CCTATGCG,-0.155
22,AACCGTCG,0.298

row,Sequence,PBM E-score
1,ATCCCGCA,-0.147
2,GCATCTTA,0.11
3,AACCCCCC,-0.421
4,ATGCCCCC,-0.306
5,CGCAGAGC,-0.134
6,CTAACTGC,-0.046
7,ACCTACAG,0.172
8,CTCCGTGA,0.0295
9,ACATACAG,-0.0843
10,CATCAAGG,-0.137
11,GTACTAAC,0.048
12,CCAATTAC,0.0466
13,AATGGTAG,0.225
14,GACCACAA,-0.0916
15,GTCGCTGA,0.104
16,CCGAAAAC,-0.0692
17,AAGACTGA,-0.159
18,GAGACTAC,-0.0609
19,AAATGCTG,0.0213
20,AGCGATGG,0.0661
21,GAATAAGA,0.0625
22,CTGGCCGC,-0.251

# Shown with bars between the fields: part of the list above
row | Sequence | PBM E-score
4 | ATGCCCCC | -0.306
6 | CTAACTGC | -0.046

# The list goes on:

row,Sequence,PBM E-score
1,CTCAGTAA,-0.226
2,CCTGAGTA,-0.238
3,AATTAAGC,0.111
4,CTTGGTGA,-0.0225
5,TAGAATAA,0.114
6,CATAGCCC,-0.332
7,ATAAACTG,0.0304
8,CTTTAACC,-0.275
9,AACTATGC,0.203
10,ACGTTGAG,-0.013
11,AAGCCAAA,0.00729
12,CCGGAAGG,-0.297
13,CATCTGGC,0.0534
14,AAATTATA,0.197
15,TCATTGAA,0.164
16,GAGCGGGA,-0.0765
17,CTGGAATC,-0.00545
18,CATTTCGA,0.133
19,CACAGGCC,-0.0982
20,GGGCACAC,-0.123
21,ATTCCCGA,-0.0981
22,ACGTTTAC,-0.121
